Experimental data reported in PMC1940015.
These are yes or no findings as the source states them, for the method shown. Binding seen in cells or lysates may run through a third protein. Some binding calls cover weakened binding; strength is not graded here.

The chains behind the UniProt entries cited, without tags or fusion partners. Where a name states a change or a piece, a line headed by the entry shows the natural chain unless it says otherwise. A line that says so, or that is headed by a name, gives the form on record, which may keep a tag or linker.
UniProt P49024: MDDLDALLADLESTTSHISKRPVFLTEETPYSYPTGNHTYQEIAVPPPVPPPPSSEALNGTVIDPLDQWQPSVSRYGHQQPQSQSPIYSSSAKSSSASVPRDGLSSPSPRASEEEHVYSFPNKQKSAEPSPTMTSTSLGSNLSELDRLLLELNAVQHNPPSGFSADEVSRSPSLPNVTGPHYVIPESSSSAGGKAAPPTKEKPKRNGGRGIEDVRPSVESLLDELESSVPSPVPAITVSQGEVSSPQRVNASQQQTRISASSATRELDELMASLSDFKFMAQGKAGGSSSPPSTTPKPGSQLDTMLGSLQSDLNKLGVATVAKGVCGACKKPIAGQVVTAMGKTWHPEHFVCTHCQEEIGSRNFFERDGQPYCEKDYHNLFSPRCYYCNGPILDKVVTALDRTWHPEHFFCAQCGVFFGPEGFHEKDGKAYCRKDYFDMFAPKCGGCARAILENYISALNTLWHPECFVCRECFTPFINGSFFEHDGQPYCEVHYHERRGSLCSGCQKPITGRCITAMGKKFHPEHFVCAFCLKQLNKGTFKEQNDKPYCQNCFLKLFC
FLAG-tagged chicken paxillin with three Y to F substitutions at Y31, Y118 and Y182 (P49024, form named): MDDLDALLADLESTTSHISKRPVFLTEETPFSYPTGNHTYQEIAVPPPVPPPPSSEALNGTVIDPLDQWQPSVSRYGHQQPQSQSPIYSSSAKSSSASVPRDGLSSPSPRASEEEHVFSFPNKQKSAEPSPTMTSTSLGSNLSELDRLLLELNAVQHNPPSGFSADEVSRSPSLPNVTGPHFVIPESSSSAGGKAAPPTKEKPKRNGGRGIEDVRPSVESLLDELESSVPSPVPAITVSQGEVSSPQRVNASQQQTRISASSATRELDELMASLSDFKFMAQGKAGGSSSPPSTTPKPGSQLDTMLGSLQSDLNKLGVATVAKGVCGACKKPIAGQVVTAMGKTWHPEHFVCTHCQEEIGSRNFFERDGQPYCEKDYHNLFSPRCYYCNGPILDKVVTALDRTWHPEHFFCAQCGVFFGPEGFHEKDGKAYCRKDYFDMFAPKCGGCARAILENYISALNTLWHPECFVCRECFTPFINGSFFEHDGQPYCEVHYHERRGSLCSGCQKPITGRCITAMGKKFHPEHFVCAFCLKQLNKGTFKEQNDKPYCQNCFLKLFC

Target: T1, wild-type human α4 integrin, full length (human) (UniProt P13612)
T1 sequence (chain, biotin (cell surface molecules labelled with NHS-LC-Biotin)): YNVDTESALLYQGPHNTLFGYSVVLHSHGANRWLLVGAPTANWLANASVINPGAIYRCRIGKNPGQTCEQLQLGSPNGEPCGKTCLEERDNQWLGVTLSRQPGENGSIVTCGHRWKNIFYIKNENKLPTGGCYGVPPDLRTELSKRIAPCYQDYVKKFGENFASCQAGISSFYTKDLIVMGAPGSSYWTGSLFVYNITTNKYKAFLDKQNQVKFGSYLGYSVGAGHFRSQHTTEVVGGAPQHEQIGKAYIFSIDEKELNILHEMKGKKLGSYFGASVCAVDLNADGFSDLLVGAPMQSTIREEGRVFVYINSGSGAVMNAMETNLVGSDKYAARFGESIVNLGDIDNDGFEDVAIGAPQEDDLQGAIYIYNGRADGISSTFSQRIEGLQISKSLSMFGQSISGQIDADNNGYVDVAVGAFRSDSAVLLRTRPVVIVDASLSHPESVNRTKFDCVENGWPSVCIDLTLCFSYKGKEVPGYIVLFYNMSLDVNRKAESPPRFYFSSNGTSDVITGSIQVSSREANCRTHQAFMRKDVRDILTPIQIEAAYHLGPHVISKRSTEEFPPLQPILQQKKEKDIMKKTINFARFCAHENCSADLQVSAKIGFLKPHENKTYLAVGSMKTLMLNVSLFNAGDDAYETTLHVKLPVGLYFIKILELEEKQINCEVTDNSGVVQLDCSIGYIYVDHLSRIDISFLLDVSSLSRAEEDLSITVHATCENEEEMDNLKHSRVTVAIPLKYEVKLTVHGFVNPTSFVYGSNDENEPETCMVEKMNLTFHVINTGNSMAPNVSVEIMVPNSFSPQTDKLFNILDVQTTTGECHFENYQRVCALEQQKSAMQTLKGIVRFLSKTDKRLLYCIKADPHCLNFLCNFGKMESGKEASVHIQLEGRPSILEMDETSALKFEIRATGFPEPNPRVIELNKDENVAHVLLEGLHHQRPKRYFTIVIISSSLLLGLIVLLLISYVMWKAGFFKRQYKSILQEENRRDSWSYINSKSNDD
Assay: co-IP; lysates of biotin-labelled PC12 cells co-expressing wild-type α4 and FLAG-paxillin constructs; immunoprecipitated with anti-α4, re-immunoprecipitated with anti-FLAG, western blot with anti-paxillin antibody

Row | binding | Substance
1 | binds | FLAG-tagged chicken paxillin with three Y to F substitutions at Y31, Y118 and Y182 (from UniProt P49024 1-559)
2 | binds | FLAG-tagged wild-type chicken paxillin (from UniProt P49024 1-559)
